Source: patent US9452985B2, “Tau imaging probe” (GE Healthcare Limited, priority 2010, dated 2016)
At least one structure is not confirmed: it was looked up by name or label, or the drawing left a doubt. Some entries repeat one wording, which the source may state once for all of them.

Tested on: neurofibrillary tangles
Test: Staining test on brain section of Alzheimer's disease patients
Assay type: binding, human
Conditions: 100 μM solution in 50% ethanol, 10 minutes, fluorescence microscope
From the text: The procedure of staining test on the compounds of the present invention on the brain section of Alzheimer's disease patients is described below:
(1) We used the brain specimens of the temporal lobe or hippocampus from patients who were definitely diagnosed as having Alzheimer's disease pathology. The specimens were obtained from Choju Medical Institute, Fukushimura Hospital, our collaborating research institute, and the consent for use for research purposes was obtained from the patients' bereaved family (Fukushimura Hospital, Ethics Committee Approval No. 20).
(2) The paraffin-embedded brain tissue was sliced to 6 or 8 μm thickness, extended on a slide glass, and dried. The paraffinized brain section was deparaffinized by washing with xylene for 10 minutes×2, 100% ethanol for 5 minutes×2, 90% ethanol for 5 minutes, and running water for 10 minutes in this order.
(3) As a pretreatment for staining with the compounds of the present invention, the treatment to remove autofluorescence with lipofuscin was performed. First, the paraffinized brain section was immersed in 0.25% KMnO4 solution for 20 minutes. It was washed with PBS for 2 minutes twice, immersed in a 0.1% K2S2O5/oxalic acid solution for approximately 5 minutes, and further washed with PBS for 2 minutes 3 times.
(4) From 100 μM solution of the compounds of the present invention dissolved in 50% ethanol, approximately 150 μl was dropped on the section to react for 10 minutes. After being immersed in tap water 5 times, it was mounted with Flour Save Reagent (Calbiochem) and examined with a fluorescence microscope (Nikon, ECLIPSE 80i). The images were taken with a digital camera (Nikon, Dxin1200F or Photometrics, Cool SNAP ES).

Structure (SMILES)	binding to neurofibrillary tangles in the brain section of Alzheimer's disease patients (staining test)
CCN(C)c1ccc(-c2ccc3ccc(OC(CO)CF)cc3n2)cc1 (stereo not shown) [THK-5078, 2-(4-ethylmethylaminophenyl)-7-(1-fluoromethyl-2-hydroxyethoxy)-quinoline]	bind to neurofibrillary tangles specifically and selectively
CCN(C)c1cccc2ccc(-c3ccc(F)nc3)nc12 [THK-5089, 8-ethylmethylamino-2-(2-fluoropyrid-5-yl)quinoline]	bind to neurofibrillary tangles specifically and selectively
CCN(C)c1ccc2ccc(-c3ccc(F)nc3)nc2c1 [THK-5098, 7-ethylmethylamino-2-(2-fluoropyrid-5-yl)quinoline]	bind to neurofibrillary tangles specifically and selectively
CCN(C)c1ccc2nc(-c3ccc(F)cc3)ccc2c1 [THK-5100, 6-ethylmethylamino-2-(4-fluorophenyl)quinoline]	bind to neurofibrillary tangles specifically and selectively
